Laboratory results from patent US20240366728A1, “Treatment of Diabetes Mellitus” (Carmot Therapeutics Inc., priority 2023, published 2024).
At least one peptide structure holds a part that was inferred or is arguable (an end, a ring closure or a residue).

Assay: 1 mg/kg SC mouse

## CCCCCCCCCCCCCCCC(=O)N[C@@H](CCC(=O)NCCCC[C@H](NC(=O)[C@H](C)NC(=O)[C@H](C)NC(=O)[C@H](CCC(N)=O)NC(=O)CNC(=O)[C@H](CCC(=O)O)NC(=O)[C@H](CC(C)C)NC(=O)[C@H](Cc1ccc(O)cc1)NC(=O)[C@H](CO)NC(=O)[C@H](CO)NC(=O)[C@@H](NC(=O)[C@H](CC(=O)O)NC(=O)[C@H](CO)NC(=O)[C@@H](NC(=O)[C@H](Cc1ccccc1)NC(=O)[C@@H](NC(=O)CNC(=O)[C@H](CCC(=O)O)NC(=O)[C@H](C)NC(=O)[C@@H](N)Cc1c[nH]cn1)[C@@H](C)O)[C@@H](C)O)C(C)C)C(=O)N[C@@H](CCC(=O)O)C(=O)N[C@@H](Cc1ccccc1)C(=O)N[C@H](C(=O)N[C@@H](C)C(=O)N[C@@H](Cc1c[nH]c2ccccc12)C(=O)N[C@@H](CC(C)C)C(=O)N[C@H](C(=O)N[C@@H](CCCNC(=N)N)C(=O)NCC(=O)N[C@@H](CCCNC(=N)N)C(=O)NCC(=O)O)C(C)C)[C@@H](C)CC)C(=O)O [Liraglutide]
  AUClast: 22.127 µM·h
  Tmax: 6.0 h
